The supplement of paper PMC3334620
The full ranking holds about 33,000 sequences; the median of “E-score (-0.5 to 0.5)” is about -0.015, and the highest 2% start at about 0.3. Some of the results follow.

biological target: T1, Abf1 (UniProt P14164); experiment: PBM E-score (8-mer binding enrichment) (E-score (-0.5 to 0.5)); higher = stronger / more preferred TF binding; conditions: protein concentration: 200 nM; construct: GST-full length
T1 sequence: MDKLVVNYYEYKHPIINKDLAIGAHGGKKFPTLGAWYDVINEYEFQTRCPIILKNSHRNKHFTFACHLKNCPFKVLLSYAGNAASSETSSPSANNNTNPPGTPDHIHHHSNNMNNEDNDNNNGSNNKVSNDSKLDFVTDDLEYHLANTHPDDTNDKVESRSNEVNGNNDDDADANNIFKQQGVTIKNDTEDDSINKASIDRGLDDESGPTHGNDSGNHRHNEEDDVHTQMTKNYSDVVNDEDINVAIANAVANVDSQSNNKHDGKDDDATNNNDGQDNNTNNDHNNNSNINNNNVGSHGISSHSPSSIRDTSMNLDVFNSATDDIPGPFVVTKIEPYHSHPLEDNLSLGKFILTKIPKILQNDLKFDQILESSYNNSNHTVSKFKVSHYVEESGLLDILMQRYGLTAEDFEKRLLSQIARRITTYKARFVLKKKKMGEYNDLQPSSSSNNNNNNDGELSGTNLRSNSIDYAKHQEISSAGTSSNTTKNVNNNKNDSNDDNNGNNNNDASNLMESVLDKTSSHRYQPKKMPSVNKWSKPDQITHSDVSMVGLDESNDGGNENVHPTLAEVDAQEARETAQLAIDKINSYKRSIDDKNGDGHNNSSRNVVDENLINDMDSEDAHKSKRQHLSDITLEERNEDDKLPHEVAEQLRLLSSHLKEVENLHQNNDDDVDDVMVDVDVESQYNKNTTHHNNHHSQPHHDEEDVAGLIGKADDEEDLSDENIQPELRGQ
Summary of the method: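 Each ungapped eight-base word and its reverse complement, pooled, received an E-score from the Universal PBM Analysis Suite. Underlying scans, normalised with masliner, recorded fluorescent anti-GST bound to GST-tagged yeast transcription factors. These were applied at about 100-200 nM to universal all-10-mer Agilent arrays double-stranded by primer extension.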

Question: How did the “PBM E-score” value turn out when CTAAAAAA was run?
Answer: Its value is 0.149.

Question: For ATGAGTGC, which “PBM E-score” value is on record?
Answer: The value was 0.153.

Question: How did the “PBM E-score” value turn out when ATGCAAAT was run?
Answer: Its value is -0.0423.

Question: GATTTTAA was tested. Which “PBM E-score” value did it give?
Answer: The value was 0.134.

Question: For ACAACAGG, which “PBM E-score” value is on record?
Answer: Its value is -0.0968.

Question: Which “PBM E-score” value does the source give for ATGGAGAG here?
Answer: The value was -0.009.

Question: With CGAGGCCA as the sequence, how does the “PBM E-score” value read?
Answer: Its value is -0.118.

Question: For CATAGCTA, which “PBM E-score” value is on record?
Answer: The value was -0.253.

Question: Which “PBM E-score” value does the source give for GTCGGATA here?
Answer: The value was 0.0968.

Question: ACTATATC was tested. Which “PBM E-score” value did it give?
Answer: The value was 0.243.

Question: How did the “PBM E-score” value turn out when CCCGTGAC was run?
Answer: The value was 0.194.

Question: Which “PBM E-score” value does the source give for AATCTCCT here?
Answer: Its value is -0.114.

Question: How did the “PBM E-score” value turn out when GGGGACCC was run?
Answer: Its value is -0.32.

Question: For AGGCGACG, which “PBM E-score” value is on record?
Answer: The value was 0.018.

Question: How did the “PBM E-score” value turn out when CGCGGAAC was run?
Answer: The value was 0.00711.

Question: Which “PBM E-score” value does the source give for GGCGACAA here?
Answer: The value was 0.0843.

Question: ACAGCCAA was tested. Which “PBM E-score” value did it give?
Answer: Its value is -0.138.

Question: With CAGGGCGC as the sequence, how does the “PBM E-score” value read?
Answer: The value was 0.0743.

Question: With TCAGTCAA as the sequence, how does the “PBM E-score” value read?
Answer: The value was -0.054.

Question: For GATTGCGC, which “PBM E-score” value is on record?
Answer: Its value is -0.139.

Question: How did the “PBM E-score” value turn out when AGCGGAGA was run?
Answer: Its value is -0.0933.

Question: CCCTAAGG was tested. Which “PBM E-score” value did it give?
Answer: The value was -0.082.

Question: How did the “PBM E-score” value turn out when AGTGTAAG was run?
Answer: The value was 0.0585.

Question: For ACAAGGGC, which “PBM E-score” value is on record?
Answer: The value was -0.36.

Question: For ACAGGCCA, which “PBM E-score” value is on record?
Answer: Its value is -0.17.

Question: ACTGGTTA was tested. Which “PBM E-score” value did it give?
Answer: Its value is 0.0319.

Question: How did the “PBM E-score” value turn out when ACTTTAAC was run?
Answer: The value was -0.0969.

Question: ATTTTGGC was tested. Which “PBM E-score” value did it give?
Answer: Its value is -0.0144.

Question: For AGAAGTAG, which “PBM E-score” value is on record?
Answer: Its value is 0.0896.

Question: With CAGTTGTA as the sequence, how does the “PBM E-score” value read?
Answer: The value was -0.0481.

Question: Which “PBM E-score” value does the source give for CGTCAATC here?
Answer: The value was 0.203.

Question: With ATATCCCA as the sequence, how does the “PBM E-score” value read?
Answer: The value was 0.0961.

Question: How did the “PBM E-score” value turn out when CAACGTTC was run?
Answer: Its value is -0.145.

Question: Which “PBM E-score” value does the source give for ATTTCACC here?
Answer: Its value is -0.00781.

Question: How did the “PBM E-score” value turn out when TACCCCGA was run?
Answer: Its value is -0.0628.

Question: Which “PBM E-score” value does the source give for GTACAAAA here?
Answer: The value was 0.344.

Question: For ACTCAAGG, which “PBM E-score” value is on record?
Answer: The value was -0.101.

Question: How did the “PBM E-score” value turn out when ATCGTGTG was run?
Answer: The value was 0.196.

Question: CTGTTGAA was tested. Which “PBM E-score” value did it give?
Answer: Its value is 0.128.

Question: For AGGTTGGA, which “PBM E-score” value is on record?
Answer: The value was -0.005.

Question: How did the “PBM E-score” value turn out when CTTTCCTA was run?
Answer: Its value is -0.0657.

Question: GACAAGCC was tested. Which “PBM E-score” value did it give?
Answer: Its value is 0.149.

Question: How did the “PBM E-score” value turn out when ACCCTGCT was run?
Answer: Its value is -0.0817.

Question: For CGTCGACA, which “PBM E-score” value is on record?
Answer: Its value is 0.1.

Question: With ACTCTCAG as the sequence, how does the “PBM E-score” value read?
Answer: Its value is -0.135.

Question: For CCATGAGC, which “PBM E-score” value is on record?
Answer: The value was 0.0173.

Question: With CTCCGAAC as the sequence, how does the “PBM E-score” value read?
Answer: The value was 0.137.

Question: Which “PBM E-score” value does the source give for ATGTGTTG here?
Answer: The value was 0.0379.

Question: For CATACAAG, which “PBM E-score” value is on record?
Answer: The value was -0.0732.

Question: How did the “PBM E-score” value turn out when GGAATTAA was run?
Answer: Its value is 0.0739.

Question: How did the “PBM E-score” value turn out when GGTCAGAA was run?
Answer: The value was -0.0194.

Question: How did the “PBM E-score” value turn out when CCGGAAAC was run?
Answer: The value was -0.0233.

Question: With AACCCGCA as the sequence, how does the “PBM E-score” value read?
Answer: Its value is -0.137.

Question: How did the “PBM E-score” value turn out when AGGCTTGG was run?
Answer: The value was -0.141.

Question: How did the “PBM E-score” value turn out when ACATAGTC was run?
Answer: The value was 0.0796.

Question: For GAGTCGAC, which “PBM E-score” value is on record?
Answer: The value was -0.0767.

Question: For ATAAATCG, which “PBM E-score” value is on record?
Answer: Its value is 0.0826.

Question: For AGAAAGTC, which “PBM E-score” value is on record?
Answer: The value was 0.0405.

Question: Which “PBM E-score” value does the source give for CGAGTGAG here?
Answer: Its value is -0.011.

Question: How did the “PBM E-score” value turn out when GTCTTCGA was run?
Answer: The value was 0.00901.

Question: ACCTGTGC was tested. Which “PBM E-score” value did it give?
Answer: The value was -0.132.

Question: For GGTTGCTA, which “PBM E-score” value is on record?
Answer: The value was -0.0309.

Question: For GCGTCATA, which “PBM E-score” value is on record?
Answer: Its value is 0.138.

Question: Which “PBM E-score” value does the source give for AGAACACT here?
Answer: The value was -0.0679.

Question: CTACCAAA was tested. Which “PBM E-score” value did it give?
Answer: Its value is 0.0452.

Question: AAGAGTGA was tested. Which “PBM E-score” value did it give?
Answer: The value was 0.238.

Question: For TCTCCAGA, which “PBM E-score” value is on record?
Answer: Its value is -0.0332.

Question: Which “PBM E-score” value does the source give for ACTCAGCA here?
Answer: The value was -0.198.

Question: For CTCGTCGC, which “PBM E-score” value is on record?
Answer: The value was 0.0896.

Question: With AGGTCAAA as the sequence, how does the “PBM E-score” value read?
Answer: Its value is -0.0273.

Question: How did the “PBM E-score” value turn out when CTCCCAAC was run?
Answer: Its value is -0.322.

Question: Which “PBM E-score” value does the source give for ATAGCGAG here?
Answer: The value was -0.0697.

Question: With GACAGGGC as the sequence, how does the “PBM E-score” value read?
Answer: Its value is -0.129.

Question: For GACTGGGA, which “PBM E-score” value is on record?
Answer: The value was -0.0196.

Question: TCGTCTAA was tested. Which “PBM E-score” value did it give?
Answer: The value was 0.298.

Question: Which “PBM E-score” value does the source give for CCGGGATC here?
Answer: The value was -0.0914.

Question: GACTCCTC was tested. Which “PBM E-score” value did it give?
Answer: The value was -0.125.

Question: How did the “PBM E-score” value turn out when AGAGGCCA was run?
Answer: The value was -0.169.

Question: How did the “PBM E-score” value turn out when AGTGCGAG was run?
Answer: The value was -0.123.

Question: ATAGTCTG was tested. Which “PBM E-score” value did it give?
Answer: Its value is 0.0666.

Question: How did the “PBM E-score” value turn out when CGTATCTC was run?
Answer: Its value is 0.064.

Question: Which “PBM E-score” value does the source give for ATCGTGGG here?
Answer: The value was 0.166.

Question: For TGTCCCAA, which “PBM E-score” value is on record?
Answer: The value was 0.0462.

Question: Which “PBM E-score” value does the source give for AGCCCGAT here?
Answer: Its value is -0.00479.

Question: For AGTTAGCA, which “PBM E-score” value is on record?
Answer: The value was 0.061.

Question: For ACTATACG, which “PBM E-score” value is on record?
Answer: Its value is 0.171.
